# PubChem BioAssay AID652243 | Drosophila RNAi Screening Center | 2013
# Test: 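Fly genes required for human androgen receptor driven transcription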 (primary screen)
# Cells: Drosophila S2R+ cells
# Knock-down reagent: long dsRNA against Drosophila genes
# Duration: 72 h (48 h, then 24 h hormone)
# Conditions: synthetic androgen R1881 at 10 nM for 24 h
# Measurement: 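Per-well raw luminescence of the androgen-driven firefly reporter and of the Renilla control, two replicates each, without normalisation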
# Reading the numbers: firefly reporter light: higher = more light from androgen-responsive reporter; Renilla control light: higher = more constitutive control signal (cell number, transfection)
# Call rule: 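Hit when the log firefly-to-Renilla ratio dropped or increased by a fixed fold versus the mean of GFP or LacZ controls across duplicate plates; lowering cut given as 1.5 and as 3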
# Meaning of the calls: active = hit: reporter lowered or raised; inactive = no hit
# In all, the deposit lists about 24,000 reagents; this is a random part of those that have a named target and a result. Of all reagents, 246 (1%) got an active call. 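Plates not normalised; calls are printed but the firefly/Renilla ratio behind them is not deposited; fold cut for lowering reported inconsistently.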 Raw values vary from plate to plate and are shown uncorrected. A plus sign joins genes that one reagent is predicted to hit. Not given: the amount of reagent.
gene knocked down,amplicon,"firefly reporter light, replicate 1","firefly reporter light, replicate 2","Renilla control light, replicate 1","Renilla control light, replicate 2",outcome
Jon65Ai,DRSC09731,2.84e5,2.51e5,3.46e6,3.12e6,inactive
Jon65Ai,DRSC24837,5.21e5,4.83e5,5.31e5,6.18e5,inactive
CG13048,DRSC09929,1.62e5,1.20e5,2.17e6,1.64e6,inactive
CG13048,DRSC26938,4.11e5,3.92e5,7.37e5,5.43e5,inactive
CR4575,DRSC18372,3.26e5,4.41e5,2.94e6,2.35e6,inactive
CG8157,DRSC07085,1.14e5,1.65e5,2.91e6,2.91e6,inactive
CG8157,DRSC21595,4.63e5,5.18e5,3.30e6,4.46e6,inactive
CG8157,DRSC25401,6.40e5,8.03e5,7.20e5,9.28e5,inactive
CG10710,DRSC09784,1.55e5,1.33e5,1.73e6,1.75e6,inactive
lncRNA:Hsromega,DRSC22875,7.58e5,9.39e5,1.85e6,2.16e6,inactive
lncRNA:Hsromega,DRSC26039,3.63e5,3.42e5,8.75e5,8.63e5,inactive
dpr20,DRSC08265,8.20e5,7.73e5,1.45e6,1.41e6,inactive
CG31323,DRSC14901,1.35e5,1.92e5,2.61e6,2.63e6,inactive
CG13870,DRSC06429,65342,77386,7.41e5,8.89e5,inactive
Nelf-E,DRSC10567,1.97e5,2.24e5,2.28e6,1.36e6,inactive
speck,DRSC04608,4.79e5,4.92e5,1.41e6,1.29e6,inactive
speck,DRSC27654,3.46e5,4.76e5,4.87e5,8.67e5,inactive
CG11970,DRSC14157,49360,64519,2.67e5,2.47e5,inactive
Gr61a,DRSC08358,72182,1.28e5,1.21e6,1.10e6,inactive
rec,DRSC14998,1.29e5,1.79e5,1.97e6,2.80e6,inactive
rec,DRSC15656,1.14e5,1.04e5,2.10e6,2.21e6,inactive
CG9312,DRSC16471,1.17e5,77689,8.43e5,7.56e5,inactive
CG6761,DRSC10705,8.40e5,6.92e5,9.59e5,8.85e5,inactive
inaF-A,DRSC19660,4.53e5,5.08e5,3.67e6,3.07e6,inactive
CG15080,DRSC06511,1.13e5,1.08e5,1.50e6,1.32e6,inactive
CG15080,DRSC29374,3.96e5,4.31e5,9.94e5,9.94e5,inactive
sloth2 + sloth1,DRSC17922,3.96e5,4.29e5,2.27e6,2.11e6,inactive
sloth2 + sloth1,DRSC17923,2.87e5,3.56e5,3.26e6,3.31e6,inactive
CG33160,DRSC08197,79390,96772,1.32e6,1.08e6,inactive
CG33160,DRSC26770,3.17e5,2.39e5,1.92e5,2.79e5,inactive
Acat2,DRSC08630,1.32e5,1.39e5,2.67e6,2.48e6,inactive
Alp12,DRSC02515,2.20e5,2.48e5,1.85e6,2.25e6,inactive
Alp12,DRSC36850,,,,,inactive
CG33688,DRSC37819,7.71e5,5.06e5,2.09e6,1.60e6,inactive
Uev1A,DRSC09763,6.53e5,5.53e5,1.66e6,2.25e6,inactive
CG4009,DRSC15536,1.55e5,1.54e5,1.98e6,2.23e6,inactive
vir,DRSC04377,1.25e5,1.31e5,1.02e6,9.13e5,inactive
vir,DRSC26525,2.03e5,1.69e5,4.48e5,4.34e5,inactive
CG4935,DRSC01924,1.13e5,1.29e5,1.12e6,1.42e6,inactive
lncRNA:CR30121,DRSC21481,1.08e6,9.00e5,1.65e6,1.03e6,inactive
lncRNA:CR30121,DRSC27254,2.84e5,2.56e5,6.57e5,6.64e5,inactive
chinmo,DRSC00485,1.20e5,1.91e5,9.62e5,1.10e6,inactive
chinmo,DRSC00509,44371,47399,2.83e5,3.27e5,inactive
chinmo,DRSC22413,1.58e5,3.48e5,6.45e5,1.11e6,inactive
chinmo,DRSC28547,4.41e5,8.83e5,8.54e5,1.42e6,inactive
CG10680,DRSC02093,1.54e5,1.89e5,1.86e6,1.70e6,inactive
lncRNA:CR32657,DRSC19403,4.40e5,4.69e5,3.86e6,4.45e6,inactive
lncRNA:CR32657,DRSC25753,6.66e5,4.12e5,6.98e5,6.11e5,inactive
NimB1,DRSC01880,1.18e6,1.14e6,2.41e6,2.28e6,inactive
DCTN4-p62,DRSC06101,6.77e5,5.54e5,1.31e6,1.29e6,inactive
DCTN4-p62,DRSC27900,4.80e5,4.14e5,1.68e6,1.20e6,inactive
CG30109,DRSC05675,4.30e5,5.51e5,6.82e5,6.66e5,inactive
CG14573,DRSC11734,3.03e5,2.55e5,2.72e6,2.82e6,inactive
CG14573,DRSC29094,7.06e5,6.94e5,1.01e6,1.20e6,inactive
Tmf,DRSC18368,3.59e5,3.92e5,1.78e6,1.39e6,inactive
Tmf,DRSC30004,3.57e5,3.56e5,1.48e6,1.38e6,inactive
Met,DRSC20284,5.09e5,4.44e5,2.91e6,2.55e6,inactive
Met,DRSC27106,3.81e5,2.05e5,4.01e5,1.02e5,inactive

Sorted by “firefly reporter light, replicate 2” (low to high): some entries from above.
gene knocked down,amplicon,"firefly reporter light, replicate 1","firefly reporter light, replicate 2","Renilla control light, replicate 1","Renilla control light, replicate 2",outcome
CG10710,DRSC09784,1.55e5,1.33e5,1.73e6,1.75e6,inactive
CG8157,DRSC25401,6.40e5,8.03e5,7.20e5,9.28e5,inactive
lncRNA:Hsromega,DRSC22875,7.58e5,9.39e5,1.85e6,2.16e6,inactive
